Here are results for 38 compounds from PMC12670160, “A drug-repurposing screen of FDA- and EMA-approved drugs identifies two NF-κB inhibitors active against eumycetoma” (Journal of Antimicrobial Chemotherapy, 2025).

Structures are written as SMILES. Where a name gives a salt, the structure may show the parent alone. Screen size: about 5,300 compounds; about 130 (2.5%) showed an effect of 50% or more. This is one part of the list.

The test system of this test is M. mycetomatis strain mm55. Particulars: primary screen, metabolic activity vs growth control; 96 h, 2 µM; inhibitor.
For the compound `NC[C@H]1O[C@H](O[C@H]2[C@H](O)[C@@H](O[C@H]3O[C@H](CO)[C@@H](O)[C@H](N)[C@H]3O)[C@H](N)C[C@@H]2N)[C@H](N)C[C@@H]1O` [ONC0000534, tobramycin], the “% viability” value stood at 98.2%. Turning to `O=C(/C=C/c1cccc(S(=O)(=O)Nc2ccccc2)c1)NO` [ONC0004737, belinostat pxd101], the “% viability” value is 105.3%. For `CC1(C)Cc2c(-c3ccccc3)c(-c3ccc(Cl)cc3)c(CC(=O)O)n2C1` [ONC0004646, licofelone], the “% viability” value is listed as 64.95%. With `CC(C)(C)c1cc(NC(=O)Nc2ccc(-c3cn4c(n3)sc3cc(OCCN5CCOCC5)ccc34)cc2)no1` [ONC0005094, quizartinib ac220], the “% viability” value was found to be 95.94%. With `CN1CCN(c2ccc(-c3cccc(CN4CCOCC4)c3)cc2NC(=O)c2c[nH]c(=O)cc2C(F)(F)F)CC1` [ONC0003596, oicr9429], the “% viability” value turned out to be 102.7%. As for `CC(=O)N[C@H](Cc1c[nH]c2ccccc12)C(=O)OCc1cc(C(F)(F)F)cc(C(F)(F)F)c1` [ONC0002674, l732138], the figure is 67.52%. For the compound `CCOC(=O)/C=C(C)/C=C/C=C(C)/C=C/c1c(C)cc(OC)c(C)c1C` [ONC0001040, etretinate], the “% viability” value amounted to 82.26%.

As for `CCOC(=O)Nc1nc2ccccc2[nH]1` [ONC0004223, lobendazole], the “% viability” value was found to be 137.9%. As for `CN1CCN(c2ccc(/C=C(\C#N)c3ccccc3Br)cc2)CC1` [ONC0002643, dg172], the figure is 54.89%; as for `CNC(=O)c1ccc2c(c1)S(=O)(=O)c1ccccc1C2=O` [ONC0002375, bw616u], 76.21%.

With `CCS(=O)(=O)N1CCC[C@@H]2CN3CCc4cc(OC)ccc4[C@@H]3C[C@@H]21` [ONC0002617, rs79948], the “% viability” value was 85.43%.

Turning to `O=C(CCc1ccncc1)NNC(=O)N1Cc2ccccc2Oc2ccc(Cl)cc21` [ONC0001679, sc51089], the “% viability” value came to 66.58%. With `N#[N+]/C=C(\[O-])CC[C@H](N)C(=O)O` [ONC0002763, 6diazo5oxolnorleucine], the “% viability” value was determined as 81.17%. For the compound `CC(C)(CCCCCCCCCCC(C)(C)CC(=O)O)CC(=O)O` [ONC0005311, medica16], the “% viability” value is recorded as 99.04%. For `Cc1nccc2[nH]c(=O)ccc12` [ONC0001963, medorinone], the “% viability” value worked out at 84.27%. As to `O=c1c(O)c(-c2ccc(O)cc2)oc2cc(O)cc(O)c12` [ONC0000144, kaempferol], the “% viability” value amounted to 93.65%. As for `C#C[C@]1(O)CC[C@H]2[C@@H]3CCC4=CC(=O)CCC4=C3C=C[C@@]21CC` [ONC0002306, gestrinone], the figure is 80.57%; as for `NC[C@@](O)(c1ccc(Cl)cc1)c1ccc(-c2cn[nH]c2)cc1` [ONC0004493, at13148], 60.66%. For `CC1(C)Oc2ccc(C#N)cc2[C@H](N(Cc2ncc[nH]2)c2ccc(Cl)cc2)[C@H]1O` [ONC0001872, bms191095], the “% viability” value was 47.09%. Regarding `N#C/C(=C(/N)Sc1ccc(N)cc1)c1ccccc1C(F)(F)F` [ONC0004419, mek12inhibitor], the “% viability” value was 139.3%. The result for `COc1cc2nc(N3CCN(C(=O)C4COc5ccccc5O4)CC3)nc(N)c2cc1OC` (centres unmarked) [ONC0005340, doxazosin mesylate] reads 111.1%; that for `COc1cc(OC)c(NC(=O)Nc2cc(C)on2)cc1Cl` [ONC0001373, pnu120596], 123.3%. On to `CCCCC1C(=O)N(c2ccccc2)N(c2ccc(O)cc2)C1=O` (centres unmarked) [ONC0000579, oxyphenbutazone], for which the “% viability” value amounted to 88.33%. Take `O=C(O)C1=CCCN(CCOC(c2ccc(C(F)(F)F)cc2)c2ccc(C(F)(F)F)cc2)C1` [ONC0000220, ci966]: the “% viability” value is recorded as 72.93%. The result for `O=C(CCBr)N1CCN(C(=O)CCBr)CC1` [ONC0002434, pipobroman] reads 85.12%.

With `Cc1cc(NC(=O)NCCN2CCC(O)(Cc3ccccc3)CC2)c2ccccc2n1` [ONC0001367, palosuran], the “% viability” value turned out to be 77.55%. Take `CCN(CC)C(=O)Nc1ccc(OCC(O)CNC(C)(C)C)c(C(C)=O)c1` (centres unmarked) [ONC0002160, celiprolol]: the “% viability” value was 87.56%.

On to `O[C@H]([C@H](O)[C@@H]1CO1)[C@H]1CO1` [ONC0001201, val083], for which the “% viability” value is listed as 107%. As to `CCN(CC)CCOCCOC(=O)C1(c2ccccc2)CCCC1` [ONC0000642, carbetapentane citrate], the “% viability” value was 140.3%. For `CC(C)C[C@@H](NC(=O)OCC1c2ccccc2-c2ccccc21)C(=O)O` [ONC0003062, npc15199], the “% viability” value amounted to 87.63%. As for `COc1ccc(Oc2c(Cl)cnn(C3c4ccccc4-c4ccccc43)c2=O)cc1` [ONC0000259, cym50769], the figure is 100.2%; as for `CC#CCn1c(N2CCC[C@@H](N)C2)nc2c1c(=O)n(Cc1nc(C)c3ccccc3n1)c(=O)n2C` [ONC0002395, linagliptin], 96.9%; as for `C=C[C@@H]1C2=CCOC(=O)C2=CO[C@H]1O[C@@H]1O[C@H](CO)[C@@H](O)[C@H](O)[C@H]1O` [ONC0005538, gentiopicrin], 86.38%. For `CCOC(=O)c1ccc(N(C)c2csc(-c3ccccc3)n2)cc1` [ONC0001341, neuropathiazol], the “% viability” value amounted to 82.26%.

Regarding `CCC(C)[C@H]1O[C@]2(C=C[C@@H]1C)C[C@@H]1C[C@@H](C/C=C(\C)[C@@H](OC3C[C@H](OC)C(O[C@H]4C[C@H](OC)[C@@H](O)[C@H](C)O4)[C@H](C)O3)[C@@H](C)/C=C/C=C3\CO[C@@H]4[C@H](O)C(C)=C[C@@H](C(=O)O1)[C@]34O)O2` (some centres unmarked) [ONC0004110, abamectin avermectin b1a shown], the “% viability” value amounted to 109.8%. For `O=P(O)(O)C(O)(Cn1ccnc1)P(=O)(O)O` [ONC0005272, zoledronic acid zoledronate], the “% viability” value was determined as 116.2%.

As for `COC(=O)[C@H](CC(C)C)NC(=O)c1ccc(NC[C@@H](N)CS)cc1-c1cccc2ccccc12` [ONC0002283, ggti298], the “% viability” value worked out at 81.53%. As for `CC(C)(CO)[C@@H](O)C(=O)NCCC(=O)O` [ONC0004104, pantothenic acidd na salt], the figure is 122.7%.
